PubChem BioAssay AID1259308 | NCATS, 2017

- Screen: 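Knock-downs that increase output of a recombinant reporter protein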 (primary screen)
- Cells: human HEK293 embryonic kidney cells stably expressing firefly luciferase (HEK-CMV-Luc2-Hygro)
- Reagents: single siRNA against human genes, 0.8 pmol siRNA per well
- Time to read-out: 72 h
- Measurement: 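Luciferase light (ONE-Glo) measured on one replicate plate set and viability (CellTiter-Glo) on the other, scaled to a negative control siRNA, with robust z-scores and luciferase per cell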
- Direction: total luciferase, z-score: higher = more reporter protein produced
- Hit rule: 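An siRNA counts as active if its total luciferase robust z-score exceeds 3; genes with two or more such siRNAs out of three were retested with fresh siRNAs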
- Calls: active = raised luciferase; inactive = no rise
This is one part, drawn at random, of about 59,000 reagents. About 1,510 of all reagents (2.6%) were called active. 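Calls use total luciferase alone and ignore viability, so some active siRNAs may act by altering cell number.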 Reagents against one gene are numbered here. Not all columns of the deposit are shown. No sequences are given here.

RNF207 (GeneID 388591) #1 gave total luciferase, z-score 1.15; inactive.
With knock-down of RNF207 (GeneID 388591) #2, the record shows total luciferase, z-score 0.476; inactive.
For RNF207 (GeneID 388591) #3, the entry reads total luciferase, z-score 1.3; inactive.
CSF3R (GeneID 1441) #1 scored total luciferase, z-score 1.13; inactive.
CSF3R (GeneID 1441) #2 gave total luciferase, z-score 1.09; inactive.
CSF3R (GeneID 1441) #3 showed total luciferase, z-score -2.58; inactive.
With knock-down of TACR1 (GeneID 6869) #1, the record shows total luciferase, z-score -0.659; inactive.
Knock-down of TACR1 (GeneID 6869) #2 came out at: total luciferase, z-score -2.17; inactive.
Against TACR1 (GeneID 6869) #3 the deposit lists total luciferase, z-score -0.948; inactive.
Against XRCC4 (GeneID 7518) #1, the entry reads total luciferase, z-score 0.485; inactive.
XRCC4 (GeneID 7518) #2 showed total luciferase, z-score 1.13; inactive.
With knock-down of XRCC4 (GeneID 7518) #3 the results were total luciferase, z-score 0.129; inactive.
After knock-down of IMPACT (GeneID 55364) #1, the screen gave total luciferase, z-score -0.393; inactive.
For IMPACT (GeneID 55364) #2, the entry reads total luciferase, z-score -0.35; inactive.
Knock-down of IMPACT (GeneID 55364) #3 gave: total luciferase, z-score -0.275; inactive.
Against PEX11A (GeneID 8800) #1, the values are total luciferase, z-score 0.263; inactive.
With knock-down of PEX11A (GeneID 8800) #2, the record shows total luciferase, z-score 0.647; inactive.
For PEX11A (GeneID 8800) #3 the deposit lists total luciferase, z-score 0.478; inactive.
With knock-down of LINC00898 (GeneID 400932) #1, the record shows total luciferase, z-score 0.876; inactive.
Against LINC00898 (GeneID 400932) #2, the entry reads total luciferase, z-score -0.21; inactive.
Against LINC00898 (GeneID 400932) #3, the entry reads total luciferase, z-score -0.426; inactive.

2 of these entries in another layout.
| gene | reagent no. | total luciferase, z-score | outcome |
| --- | --- | --- | --- |
| TACR1 (GeneID 6869) | 2 | -2.17 | inactive |
| TACR1 (GeneID 6869) | 3 | -0.948 | inactive |
